Measured values as given in US20050246797A1, “Gene participating in the synthesis of brassinosteroid” (priority 2002, published 2005).

Test: Concentrations of brassinosteroids in Arabidopsis strains by HPLC and GC-MS
Details: ground part of plants at rosette formation; for concentration of brassinosteroid, rot3-1: rot3-1 (suppressed function of ROT3); for concentration of brassinosteroid, rot3-5: rot3-5 (suppressed function of ROT3); for concentration of brassinosteroid, Ws-2: wild strain Ws-2, freeze-dried
Method: The concentrations of brassinosteroids were determined in wild strains (Ws-2), the strain of reference example 1 (rot3-1 and rot3-5, suppressed function of ROT3) and the strain of reference example 3 (rot3/CYP90D1, suppressed function of ROT3 and CYP90D1) of Arabidoposis. The concentration was determined by harvesting the ground part of the plants at the time of rosette formation by reaping, by freezing and drying, and by detecting using HPLC and GC-MS.

Row | Compound | concentration of brassinosteroid, rot3-1 [ng/g] | concentration of brassinosteroid, rot3-5 [ng/g] | concentration of brassinosteroid, Ws-2
1 | CC(C)[C@H](C)[C@@H](O)[C@H](O)[C@@H](C)[C@H]1CC[C@H]2[C@@H]3CC[C@H]4C[C@H](O)CC[C@]4(C)[C@H]3CC[C@]12C [3-Deoxotyphasterol] | 3.49 | 4.30 | 2.30 ng/g
2 | CC(C)[C@H](C)[C@@H](O)[C@H](O)[C@@H](C)[C@H]1CC[C@H]2[C@@H]3CC[C@H]4C[C@@H](O)CC[C@]4(C)[C@H]3CC[C@]12C [6-Deoxoteasterone] | 0.19 | 0.11 | 0.05 ng/g
3 | CC(C)[C@H](C)[C@@H](O)[C@H](O)[C@@H](C)[C@H]1CC[C@H]2[C@@H]3CC[C@H]4C[C@H](O)[C@H](O)C[C@]4(C)[C@H]3CC[C@]12C [6-Deoxocastasterone] | 1.88 | 4.00 | 2.60 ng/g
4 | CC(C)[C@H](C)[C@@H](O)[C@H](O)[C@@H](C)[C@H]1CC[C@H]2[C@@H]3CC(=O)[C@H]4C[C@H](O)[C@H](O)C[C@]4(C)[C@H]3CC[C@]12C [Castasterone] | 0.31 | 0.50 | 0.28 ng/g
5 | CC(C)[C@H](C)[C@@H](O)[C@H](O)[C@@H](C)[C@H]1CC[C@H]2[C@@H]3CC(=O)[C@H]4C[C@H](O)CC[C@]4(C)[C@H]3CC[C@]12C [Typhasterol] | 0.38 | 0.46 | 0.27 ng/g
6 | CC(C)[C@H](C)[C@@H](O)[C@H](O)[C@@H](C)[C@H]1CC[C@H]2[C@@H]3CC(=O)[C@H]4C[C@@H](O)CC[C@]4(C)[C@H]3CC[C@]12C [Teasterone] | 0.004 | 0.02 | — (— in the table shows that the value is less than the limit of detection (0.001 ng/g))
7 | CC(C)[C@H](C)[C@@H](O)[C@H](O)[C@@H](C)C1CCC2C3OC(=O)[C@H]4C[C@H](O)[C@H](O)C[C@]4(C)C3CC[C@@]21C (stereo partly drawn) [Brassinolide] | 0.04 | 0.06 | 0.20 ng/g
